Laboratory results taken from patent US6881825B1, “Identication of peptides that facilitate uptake and cytoplasmic and/or nuclear transport of proteins, DNA and virues” (University of Pittsburgh of The Commonwealth System of …, priority 1999, dated 2005).
For some assays here: Part of at least one peptide drawing is inferred or uncertain, most often the ends. Some of these results come from one statement about several compounds together. Where no end group is shown, it is not given here.

How the values were obtained:
Hig-82 cells [1] = experiment: Peptide competition assay for internalization of peptide-conjugated β-gal; format: cell-based, rabbit; details: FIG. 5, conjugates of peptide 2, 3, 4 and 5, 3 hours at 37° C.
Experimental: A peptide competition assay was carried out to determine the relative efficiency and specificity of the various peptides. The peptides were conjugated to β-gal as described above in Example 4 and incubated with Hig-82 cells grown to 85% confluency in 24 well plates in the presence of non biotinylated peptides for 3 hours at 37° C. in TBS buffer while being gently rotated. The cells were then washed 10 times with TBS buffer, fixed with 4% paraformaldehyde at room temperature for 30 minutes, washed 3 times with TBS buffer, and stained with Xgal, as described above in Example 4, overnight. Cells which stained blue had internalized peptide-conjugated β-gal.

Hig-82 cells [2] = experiment: Peptide-β-gal complex internalization, X-gal staining; format: cell-based, rabbit; details: FIG. 1B; various concentrations of peptide linked to β-gal, 1:1=150 nM of β-gal
Experimental: Internalizing peptides 1-6 (SEQ ID Nos:1-6 respectively), which were identified as described above in Example 3, were synthesized, and biotinylated (synthesis and biotinylation performed by the Biotech Center of the University of Pittsburgh). The biotinylated peptides were then conjugated to avidin β-gal or avidin Cy3 at room temperature for 2 hours.
The peptide conjugates were then added to cells (Hig-82 cells, rabbit synovial cells, human synovial cells, rabbit synovial lining, human primary airway cells HBE 144, human primary islet cells, murine myoblast cells C2C12, dog kidney epithelial cells MDCK, murine fibroblast cells NIH3T3 and murine tumor cells MCA 205 (human synovial cells and human primary airway cells (HBE144) were isolated from patients from the Presbyterian Hospital, University of Pittsburgh by standard techniques for establishing a primary cell culture; human islet cells were provided by the University of Miami and were isolated by standard techniques for establishing a primary cell culture; C2C12, MDCK, 3T3 and MCA205 cells were purchased from ATTC, Bethesda, Md.; all cells were cultured in DMEM and grown to 100% confluency) and incubated while gently rotating at 37° C. for 3 hours with TBS buffer. The cells were then washed 10 times with TBS buffer and fixed with 4% paraformaldehyde at room temperature for 30 minutes. Cells were then washed 3 times with TBS buffer and stained with 1 mg/ml X-gal (Bochringer Mannheim, Indianapolis) at 37° C. overnight for β-gal-conjugated peptides. Cells which were blue indicated the presence of β-gal in the cells. For Cy3-conjugated peptides, fluorescence of the cells as measured by confocal microscopy indicated the ability of the peptide to internalize the Cy3 (a small molecule cargo).
TAT-PTD (YGRKKRRQRRR; SEQ ID NO:21), and a random control peptide (ARPILEHGSDKAT; SEQ ID NO:20). […] In FIG. 1B, various concentrations of peptides linked to β-gal were tested (1:1=150 nM of β-gal).

MCA205 fibrosarcomas = experiment: TUNEL and H&E staining of treated MCA205 fibrosarcomas; format: in vivo, C57BL/6 mice
Experimental: (§1) To determine whether the death peptide could induce apoptosis in tumor cells and inhibit tumor growth in vivo, C57BL/6 mice bearing day 7 tumors in each […] (seeded with 1×10^5 MCA205 cells) were injected daily for 10 days with a 50 μl volume of 1 mM death peptide (SEQ ID NO:24; DP1) or the apoptotic peptide alone (SEQ ID NO:23; KLA) or a saline mock into both tumors. Five mice were used in each group. Tumor volume was estimated by multiplying maximum length×width^2. Separately, C57BL/6 with single, day 12 tumors were injected with 1 mM death peptide (SEQ ID NO:24; DP1), apoptotic peptide alone (SEQ ID NO:23; KLA) or saline for eleven days. Ten mice comprised each group. On the final day, the mice were injected with the appropriate saline or peptide solution and sacrificed 3 hours post-injection. Tumors were paraffin-embedded, sectioned, and stained for TUNEL and counterstained with methyl green or stained with hematoxylin and eosin to reveal histologic architecture.
To test whether apoptosis was the mechanism of tumor killing in vivo and to study the effects of death peptide administration on tumor architecture, fibrosarcomas treated daily for 11 days with death peptide (SEQ ID NO:24; DP1), apoptotic peptide alone (SEQ ID NO:23, KLA) or tris buffered saline (TBS) were injected with 50 μl of 1 mM DP1, KLA or TBS on the eleventh day and sacrificed three hours later. […]

MCA205 tumors = experiment: Growth of MCA205 fibrosarcomas under daily intra-tumoral injection; format: in vivo
Experimental: as §1

[3] = tested on: arthritic rabbit knee joints; experiment: IL-1-induced arthritis, intra-articular peptide, TUNEL/histology and lavage white blood cells; format: in vivo
Experimental: In addition, the death peptide was administered to rabbits with IL-1-induced arthritis (see Ghivizzani et al. J. Immunol. 159:3604 (1997)). Three arthritic rabbits received the death peptide, three received peptide 5 alone and 3 received the apoptotic protein alone. The rabbits were sacrificed 24 or 72 hours post-injection of the peptides and the rabbit knee capsules were removed for histology analysis and TUNEL staining.

HIG82 cells = experiment: Cell viability by MTT assay (OD 570 nm); format: cell-based, rabbit; details: HIG-82 cells; 100-3.1 μM peptide, three hours; FIG. 14, 15
Experimental: 2×10^5 cells (HIG82, MCA205 or Jurkatt) were seeded into 24 well plates. Forty-eight hours later, 100 μM, 50 μM, 25 μM, 6.25 μM and 3.1 μM of the either the death peptide (SEQ ID NO:24), peptide 5 alone (SEQ ID NO:5) or the apoptotic peptide alone (SEQ ID NO:23) was added to the cells. To check for cell viability, three hours later, the media was aspirated and 1 ml of scrum-free media containing 0.25 mg of MTT was added to each well and incubated for 4 hours at 37° C. MTT-containing media was then removed and 1 ml of absolute isopropanol containing 0.4N HCl was added. Photographs were taken of the plates, then the cells were harvested and any debris was centrifuged. OD as taken at λ=570 nm. Each sample point was performed in triplicate.

KRIHPRLTRSIR (random peptide library) [peptide 2]
blocking of internalization of peptide-conjugated β-gal by non-biotinylated peptide (Hig-82 cells [1]): blocked the internalization of peptide 2-conjugated β-gal | relative strength of internalization of β-gal (concentration needed) (Hig-82 cells [2]): more effective than the commercially available antennapedia peptide

RRQRRTSKLMKRGGKLAKLAKKLAKLAK [death peptide]
apoptosis in tumors (TUNEL staining) (MCA205 fibrosarcomas; 11 days daily treatment, sacrificed three hours after last injection, FIG. 16C): potent apoptosis | total tumor volume stained TUNEL-positive (MCA205 fibrosarcomas; in some instances, estimated): 10-20% | tumor growth (MCA205 tumors; daily 50 μl of 1 mM intra-tumoral, compared to KLA or TBS, FIG. 16A): striking reduction or halt in tumor growth | tumor volume (MCA205 tumors; eight days following initiation of treatment, vs KLA-treated, FIG. 16B): dramatic reduction in tumor volume | mice with undetectable tumors (MCA205 tumors; single flank tumors, following 11 days of treatment): 3 out of 10 | number of white blood cells in lavage fluid ([3]; IL-1 inflamed rabbit joints, compared to peptide 5 alone, FIG. 19): great reduction | apoptosis of hyperplastic synovium ([3]; arthritic rabbit knees, FIG. 18): mediated apoptosis of hyperplastic synovium in vivo | cell viability (MTT, OD570) (HIG82 cells): impair HIG-82 cell viability

MHKRPTTPSRKM (random peptide library) [peptide 6]
blocking of internalization of peptide-conjugated β-gal by non-biotinylated peptide (Hig-82 cells [1]): blocked the internalization of peptide 2-conjugated β-gal

RRQRRTSKLMKR (random peptide library) [peptide 5]
blocking of internalization of peptide-conjugated β-gal by non-biotinylated peptide (Hig-82 cells [1]; listed as Peptide 5): blocked the internalization of peptide 2-conjugated β-gal | relative strength of internalization of β-gal (concentration needed) (Hig-82 cells [2]): more effective than the commercially available antennapedia peptide

PIRRRKKLRRLK (random peptide library) [peptide 4]
blocking of internalization of peptide-conjugated β-gal by non-biotinylated peptide (Hig-82 cells [1]; listed as Peptide 4): blocked the internalization of peptide 2-conjugated β-gal | relative strength of internalization of β-gal (concentration needed) (Hig-82 cells [2]): more effective than the commercially available antennapedia peptide

PPRLRKRRQLNM (random peptide library) [peptide 3]
blocking of internalization of peptide-conjugated β-gal by non-biotinylated peptide (Hig-82 cells [1]): blocked the internalization of peptide 2-conjugated β-gal | relative strength of internalization of β-gal (concentration needed) (Hig-82 cells [2]): more effective than the commercially available antennapedia peptide
